Source: article PMC4697807, “Novel Zn^2+ Modulated GPR39 Receptor Agonists Do Not Drive Acute Insulin Secretion in Rodents” (PLoS ONE, 2015)

Experiments:
[1] = PKPD analysis: in vivo exposures versus in vitro potencies; set-up: species or system mouse
[2] = Isothermal titration calorimetry (ITC) of compound with ZnCl2; details: ITC at 30°C; single site binding model; ± SD
Method: To determine the binding affinities of the discussed compounds for Zn^2+, isothermal titration calorimetry experiments were conducted on a MicroCal ITC-200 system (Malvern Instruments) at a temperature of 30°C. The compounds, provided as a DMSO stock solution of 10 mM, were diluted in 50 mM HEPES (pH 7.4) and 150 mM NaCl to reach a final nominal concentration of 400 μM (= 4% (v/v) final DMSO concentration). Complete titration of the compounds was typically achieved by injecting 27 x 1.3 μl aliquots of 5 mM ZnCl2 provided in a matching buffer. The thermodynamic binding parameters were extracted by non-linear regression analysis of the binding isotherms (Microcal Origin version 7.0 software package). A single site binding model was applied, yielding binding enthalpy (ΔH), stoichiometry (n), entropy (ΔS), and association constant (Ka). All experiments have been performed in triplicate to allow for error estimations.

[3] = each of the screens in the presence of Zn^2+, lean mice

SMILES | in vivo exposure versus in vitro potency ratio [1, 3] | n value (stoichiometry) [2] | ΔH (binding enthalpy) [2] [kcal/mol] | in vivo exposure versus in vitro potency ratio ([1]; DMR assay in the absence of Zn^2+)
Cc1nc2c(C(=O)O)cnn2c(O)c1Cc1ccc(Cl)cc1 [AZ4237, 6-[(4-chlorophenyl)methyl]-7-hydroxy-5-methyl-pyrazolo[1,5-a]pyrimidine-3-carboxylic acid] | > 10 | 1.18 ± 0.02 | -1.30 ± 0.25 | –
N#Cc1ccc(OCCn2ccnc2)c(OCCn2ccnc2)c1 [AZ1395, 3,4-bis-(2-imidazol-1-ylethoxy)-benzonitrile] | > 10 | 0.93 ± 0.12 | – | > 10
Cc1nc(-c2nc3c(c(=O)[nH]2)CN(C(=O)c2cccc(Cl)c2F)CC3)cs1 [AZ7914, 6-(3-chloro-2-fluoro-benzoyl)-2-(2-methylthiazol-4-yl)-3,5,7,8-tetrahydropyrido-[4,3-d]pyrimidin-4-one] | > 10 | 0.56 ± 0.08 | -3.00 ± 0.71 | –
